Source: paper doi:10.1101/2023.07.03.547513
No constants are given. Whether binding was seen depends on the method and setting. In cells and extracts the contact can be indirect. These calls come from enrichment with a bait or labelling near it, and not all partners need be listed. For part of these data: A no says only that the protein was not detected with the bait. For part of these data: Where a sequence is shown, tags or fusion partners need not be part of it.

Key:
Assay in all cases: affinity purification with mass spectrometry
[1] = biological target: T1, ECT3-Venus (A. thaliana) (UniProt F4K1Z0)
T1 sequence: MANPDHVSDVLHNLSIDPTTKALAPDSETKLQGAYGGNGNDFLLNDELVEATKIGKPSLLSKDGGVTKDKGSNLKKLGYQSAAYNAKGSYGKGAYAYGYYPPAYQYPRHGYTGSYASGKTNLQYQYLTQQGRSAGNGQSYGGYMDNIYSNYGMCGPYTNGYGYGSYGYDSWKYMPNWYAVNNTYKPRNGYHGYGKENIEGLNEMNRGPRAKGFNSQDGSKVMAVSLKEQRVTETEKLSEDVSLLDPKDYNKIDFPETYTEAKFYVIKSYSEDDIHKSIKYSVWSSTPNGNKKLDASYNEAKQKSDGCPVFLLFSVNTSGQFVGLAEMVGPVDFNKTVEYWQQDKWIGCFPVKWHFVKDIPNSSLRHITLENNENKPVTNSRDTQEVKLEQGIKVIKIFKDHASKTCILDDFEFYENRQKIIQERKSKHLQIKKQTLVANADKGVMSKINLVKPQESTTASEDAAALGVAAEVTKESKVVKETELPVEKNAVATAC

[2] = biological target: T2, ECT1-FLAG-TFP (A. thaliana) (UniProt Q3MK94)
T2 sequence: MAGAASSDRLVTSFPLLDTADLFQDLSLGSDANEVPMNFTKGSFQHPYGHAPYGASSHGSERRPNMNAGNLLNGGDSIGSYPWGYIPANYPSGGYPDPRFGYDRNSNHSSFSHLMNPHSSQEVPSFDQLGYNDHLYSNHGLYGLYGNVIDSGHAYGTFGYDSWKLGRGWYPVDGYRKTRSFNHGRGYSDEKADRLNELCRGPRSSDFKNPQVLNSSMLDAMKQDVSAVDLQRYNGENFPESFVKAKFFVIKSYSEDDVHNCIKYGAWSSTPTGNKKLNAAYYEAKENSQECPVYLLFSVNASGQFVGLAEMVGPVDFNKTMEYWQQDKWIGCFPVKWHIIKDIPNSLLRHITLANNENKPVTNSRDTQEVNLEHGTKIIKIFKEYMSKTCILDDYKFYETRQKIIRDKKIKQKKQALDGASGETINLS

[3] = biological target: T3, ECT2^WT-mCherry (A. thaliana) (UniProt Q9LJE5)
T3 sequence: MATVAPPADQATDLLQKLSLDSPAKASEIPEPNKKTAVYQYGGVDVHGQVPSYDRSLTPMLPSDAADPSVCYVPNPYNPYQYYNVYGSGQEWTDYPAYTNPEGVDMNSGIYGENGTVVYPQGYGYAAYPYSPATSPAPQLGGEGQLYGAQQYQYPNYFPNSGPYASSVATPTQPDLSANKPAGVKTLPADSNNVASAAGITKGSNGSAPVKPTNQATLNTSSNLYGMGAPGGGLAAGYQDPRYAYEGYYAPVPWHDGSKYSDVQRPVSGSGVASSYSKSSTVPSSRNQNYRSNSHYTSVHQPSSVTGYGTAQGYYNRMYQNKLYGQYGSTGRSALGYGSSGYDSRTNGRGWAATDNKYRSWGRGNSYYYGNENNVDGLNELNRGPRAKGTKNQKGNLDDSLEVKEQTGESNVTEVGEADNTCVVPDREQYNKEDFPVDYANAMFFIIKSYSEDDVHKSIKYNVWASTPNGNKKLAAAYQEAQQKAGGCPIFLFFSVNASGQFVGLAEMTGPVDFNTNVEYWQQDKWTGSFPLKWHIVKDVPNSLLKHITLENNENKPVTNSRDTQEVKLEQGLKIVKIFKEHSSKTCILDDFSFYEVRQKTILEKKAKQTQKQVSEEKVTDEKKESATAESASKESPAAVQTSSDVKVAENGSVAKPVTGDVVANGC

[4] = biological target: T4, HA-ECT2 (A. thaliana) (UniProt Q9LJE5)
T4 sequence: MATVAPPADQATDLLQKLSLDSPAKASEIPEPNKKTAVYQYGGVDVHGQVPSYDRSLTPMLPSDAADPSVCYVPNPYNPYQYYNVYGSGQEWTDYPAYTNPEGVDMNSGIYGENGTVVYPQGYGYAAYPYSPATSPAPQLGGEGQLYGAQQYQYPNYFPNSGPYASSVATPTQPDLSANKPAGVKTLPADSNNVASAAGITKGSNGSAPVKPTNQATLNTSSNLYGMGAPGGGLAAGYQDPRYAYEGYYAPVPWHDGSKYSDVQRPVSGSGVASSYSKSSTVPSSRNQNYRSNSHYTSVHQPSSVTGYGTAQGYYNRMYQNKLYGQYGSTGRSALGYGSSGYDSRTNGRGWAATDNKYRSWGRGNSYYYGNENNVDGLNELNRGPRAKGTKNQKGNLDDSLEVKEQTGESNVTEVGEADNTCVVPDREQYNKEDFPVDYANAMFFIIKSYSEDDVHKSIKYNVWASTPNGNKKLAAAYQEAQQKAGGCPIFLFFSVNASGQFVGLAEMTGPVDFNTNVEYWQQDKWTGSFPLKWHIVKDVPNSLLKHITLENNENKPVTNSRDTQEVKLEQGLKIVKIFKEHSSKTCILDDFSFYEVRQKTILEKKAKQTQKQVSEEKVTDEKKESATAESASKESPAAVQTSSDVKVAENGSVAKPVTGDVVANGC

[5] = biological target: ECT2^ΔN3.2.2-mCherry (A. thaliana) (UniProt Q9LJE5)

| Binder | binding [1] | binding [2] | binding [3] | binding [4] | binding [5] |
| --- | --- | --- | --- | --- | --- |
| poly(A) binding protein PAB4 (protein, UniProt O22173 1-662) MAQVQAPSSHSPPPPAVVNDGAATASATPGIGVGGGGDGVTHGALCSLYVGDLDFNVTDSQLYDYFTEVCQVVSVRVCRDAATNTSLGYGYVNYSNTDDAEKAMQKLNYSYLNGKMIRITYSSRDSSARRSGVGNLFVKNLDKSVDNKTLHEAFSGCGTIVSCKVATDHMGQSRGYGFVQFDTEDSAKNAIEKLNGKVLNDKQIFVGPFLRKEERESAADKMKFTNVYVKNLSEATTDDELKTTFGQYGSISSAVVMRDGDGKSRCFGFVNFENPEDAARAVEALNGKKFDDKEWYVGKAQKKSERELELSRRYEQGSSDGGNKFDGLNLYVKNLDDTVTDEKLRELFAEFGTITSCKVMRDPSGTSKGSGFVAFSAASEASRVLNEMNGKMVGGKPLYVALAQRKEERRAKLQAQFSQMRPAFIPGVGPRMPIFTGGAPGLGQQIFYGQGPPPIIPHQPGFGYQPQLVPGMRPAFFGGPMMQPGQQGPRPGGRRSGDGPMRHQHQQPMPYMQPQMMPRGRGYRYPSGGRNMPDGPMPGGMVPVAYDMNVMPYSQPMSAGQLATSLANATPAQQRTLLGESLYPLVDQIESEHAAKVTGMLLEMDQTEVLHLLESPEALNAKVSEALDVLRNVNQPSSQGSEGNKSGSPSDLLASLSINDHL | binds | no binding | binds | binds | no binding |
| poly(A) binding protein PAB8 (protein, UniProt Q9FXA2 1-671) MAQIQHQGQNANGGVAVPGAAAAEAAAAAAGAAAAAAGAAQQGTTSLYVGDLDATVTDSQLFEAFTQAGQVVSVRVCRDMTTRRSLGYGYVNYATPQDASRALNELNFMALNGRAIRVMYSVRDPSLRKSGVGNIFIKNLDKSIDHKALHETFSAFGPILSCKVAVDPSGQSKGYGFVQYDTDEAAQGAIDKLNGMLLNDKQVYVGPFVHKLQRDPSGEKVKFTNVYVKNLSESLSDEELNKVFGEFGVTTSCVIMRDGEGKSKGFGFVNFENSDDAARAVDALNGKTFDDKEWFVGKAQKKSERETELKQKFEQSLKEAADKSQGSNLYVKNLDESVTDDKLREHFAPFGTITSCKVMRDPSGVSRGSGFVAFSTPEEATRAITEMNGKMIVTKPLYVALAQRKEDRKARLQAQFSQMRPVNMPPAVGPRMQMYPPGGPPMGQQLFYGQGPPAMIPQPGFGYQQQLVPGMRPGGSPMPNFFMPMMQQGQQQQQQQQQQQRPGGGRRGALPQPQQPSPMMQQQMHPRGRMYRYPQRDVNTMPGPTQNMLSVPYDVSSGGGVHHRDSPTSQPVPIVALATRLANAAPEQQRTMLGENLYPLVEQLEPESAAKVTGMLLEMDQTEVLHLLESPEALKAKVTEAMDVLRSVAQQQAGGAADQLASLSLGDNIVP | binds | no binding | binds | binds | no binding |
| poly(A) binding protein PAB2 (protein, UniProt P42731 1-629) MAQVQLQGQTPNGSTAAVTSAPATSGGATATQFGNTSLYVGDLDFNVTDSQLFDAFGQMGTVVTVRVCRDLVTRRSLGYGYVNFTNPQDAARAIQELNYIPLYGKPIRVMYSHRDPSVRRSGAGNIFIKNLDESIDHKALHDTFSSFGNIVSCKVAVDSSGQSKGYGFVQYANEESAQKAIEKLNGMLLNDKQVYVGPFLRRQERDSTANKTKFTNVYVKNLAESTTDDDLKNAFGEYGKITSAVVMKDGEGKSKGFGFVNFENADDAARAVESLNGHKFDDKEWYVGRAQKKSERETELRVRYEQNLKEAADKFQSSNLYVKNLDPSISDEKLKEIFSPFGTVTSSKVMRDPNGTSKGSGFVAFATPEEATEAMSQLSGKMIESKPLYVAIAQRKEDRRVRLQAQFSQVRPVAMQPSVGPRMPVYPPGGPGIGQQMFYGQAPPAMIPPQPGYGYQQQLVPGMRPGGGPVPSFFMPMVQPQQQRPGGGRRPGGIQHSQQQNPMMQQQMHPRGRMFRYPQGRGGSGDVPPYDMGNNMPLTIGALASNLSNATPEQQRTMLGEVLYPLVEQVEAESAAKVTGMLLEMDQTEVLHLLESPEALKAKVAEAMDVLRSVAAGGATEQLASLNLS | binds | no binding | binds | binds | no binding |
